The results in this text go back to paper PMC8869655, “Identification of the Kinase-Substrate Recognition Interface between MYPT1 and Rho-Kinase” (Biomolecules, 2022).

Assay in all cases: pull-down; GST-MYPT1 fragment and GFP-kinase fragment co-transfected in COS7 cells; lysate incubated with Glutathione Sepharose beads 1 h at 4 °C in 20 mM Tris-HCl pH 7.5, 1 mM EDTA, 1 mM DTT, 50 mM NaCl, 0.5% NP-40; washed three times; immunoblot with anti-GST or anti-GFP
(In general: Immunoblotting shows a protein as a band on a membrane.)

Assay [1] addresses T1, GST-MYPT1 central fragment (296–597 aa) (rat) (UniProt Q10728).
T1 sequence: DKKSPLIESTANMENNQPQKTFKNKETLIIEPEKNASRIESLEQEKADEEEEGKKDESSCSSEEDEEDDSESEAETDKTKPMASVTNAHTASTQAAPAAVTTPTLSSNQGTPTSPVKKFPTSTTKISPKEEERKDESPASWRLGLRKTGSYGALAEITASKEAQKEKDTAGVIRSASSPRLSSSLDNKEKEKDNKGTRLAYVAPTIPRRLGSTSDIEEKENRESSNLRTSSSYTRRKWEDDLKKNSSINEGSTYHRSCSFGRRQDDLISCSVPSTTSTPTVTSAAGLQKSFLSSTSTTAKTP

The target in assay [2] is T2, GST-MYPT1-758–868 aa (rat) (UniProt Q10728).
T2 sequence: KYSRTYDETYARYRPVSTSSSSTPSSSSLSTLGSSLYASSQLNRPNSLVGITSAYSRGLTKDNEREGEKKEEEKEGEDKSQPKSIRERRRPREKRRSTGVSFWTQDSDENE

The target of assay [3] is T3, GST-MYPT1-684–868 aa-4A (rat) (UniProt Q10728).
T3 sequence: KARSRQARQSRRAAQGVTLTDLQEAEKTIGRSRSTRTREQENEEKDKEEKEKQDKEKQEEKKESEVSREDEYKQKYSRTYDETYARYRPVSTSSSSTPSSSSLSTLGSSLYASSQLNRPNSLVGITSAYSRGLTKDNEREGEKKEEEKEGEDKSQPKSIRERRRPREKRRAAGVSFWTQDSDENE

In assay [4] the target is T4, GST-MYPT1-684–758 aa-696A/697A (rat) (UniProt Q10728).
T4 sequence: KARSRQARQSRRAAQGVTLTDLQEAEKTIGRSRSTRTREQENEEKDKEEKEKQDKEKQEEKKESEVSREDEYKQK

In assay [5] the target is T5, GST-MYPT1-758–868 aa-854A/855A (rat) (UniProt Q10728).
T5 sequence: T2 sequence with S97A, T98A

Assay [6] concerns the target T6, GST-MYPT1-713–868 aa (rat) (UniProt Q10728).
T6 sequence: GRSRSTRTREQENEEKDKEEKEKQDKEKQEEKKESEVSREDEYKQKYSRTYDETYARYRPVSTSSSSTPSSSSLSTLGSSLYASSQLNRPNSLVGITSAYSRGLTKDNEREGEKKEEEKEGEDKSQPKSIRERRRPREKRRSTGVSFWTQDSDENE

Assay [7] addresses T7, GST-MYPT1 C-terminal fragment (592–1032 aa) (rat) (UniProt Q10728).
T7 sequence: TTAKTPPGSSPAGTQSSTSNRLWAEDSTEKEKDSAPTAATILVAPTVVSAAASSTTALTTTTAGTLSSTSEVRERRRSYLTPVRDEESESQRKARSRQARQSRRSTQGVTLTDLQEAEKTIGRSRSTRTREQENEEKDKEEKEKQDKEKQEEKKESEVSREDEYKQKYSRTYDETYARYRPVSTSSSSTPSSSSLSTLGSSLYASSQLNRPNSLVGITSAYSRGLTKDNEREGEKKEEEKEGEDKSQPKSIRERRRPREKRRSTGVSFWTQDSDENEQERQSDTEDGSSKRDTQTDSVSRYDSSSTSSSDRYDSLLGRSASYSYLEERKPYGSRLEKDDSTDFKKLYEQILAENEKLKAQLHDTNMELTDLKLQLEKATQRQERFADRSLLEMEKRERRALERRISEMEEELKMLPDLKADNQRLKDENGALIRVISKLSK

Assay [8] concerns the target T8, GST-MYPT1-655–715 aa (rat) (UniProt Q10728).
T8 sequence: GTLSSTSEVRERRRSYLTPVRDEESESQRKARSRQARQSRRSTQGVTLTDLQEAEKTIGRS

Residue numbers refer to the chain shown, from its start. No constants are given. Whether binding was seen depends on the method and setting. Binding seen in cells or lysates may run through a third protein. For some assays here: Binding calls can cover weak binding; strength is not graded here. Tags and fused reporters may be left off the sequences shown.

As to “GFP-Rho-kinase-cat-L (6–553 aa, long form of catalytic fragment) (bovine) (domain or fragment)”, the binding result is “no binding” in assay [1]; “binds” in assay [2]; “binds” in assay [3]; “no binding” in assay [4]; “binds” in assay [5]; “binds” in assay [6]. Moreover, the binding entry in assay [7] and in assay [8] was “binds” throughout.
